PubChem BioAssay AID686943 – Drosophila RNAi Screening Center – 2013
The screen tested about 23,000 reagents; shown is an unselected part of those that have a named target and a result. 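Extra replicates exist only for a retested subset of genes; insulin dose and duration not given; both raised and lowered dpERK matter.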 The numbers tell different reagents against one gene apart. The record does not give: the amount of reagent, the time to read-out.

- Assay: 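Fly genes whose loss alters ERK activation after insulin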 (primary screen)
- Cells: Drosophila S2R+ haemocyte-like cells expressing YFP-tagged ERK (Rolled)
- Knock-down reagent: long dsRNA against Drosophila genes
- Conditions: insulin stimulation versus unstimulated cells; dose and duration not given
- Detection: 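Per-plate z-scores of phospho-ERK immunostaining normalised to YFP-tagged ERK, measured with and without insulin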
- Reading the numbers: replicate 1, z-score of dpERK with insulin and replicate 2, z-score of dpERK with insulin: higher = more active ERK per ERK-YFP after insulin; replicate 1, z-score of dpERK under basal conditions: higher = more basal active ERK per ERK-YFP; replicate 1, z-score of ERK-YFP with insulin: higher = more YFP-tagged ERK signal

target gene	dsRNA no.	replicate 1, z-score of dpERK with insulin	replicate 2, z-score of dpERK with insulin	replicate 1, z-score of dpERK under basal conditions	replicate 1, z-score of ERK-YFP with insulin
CG30384	1	-0.48	-0.29	0.29	0.5
Jon99Ciii (Jonah 99Ciii)	1	-0.86	-0.13	-1.19	-3.02
CG42337	1	-1.17	0.74	0.29	1.62
CG42337	2	-4.16	-3.67	-2.54	-3.79
CG1628	1	0.47	-0.11	0.43	-0.23
Rad23	1	-0.66	0.08	0.93	0.92
Hex-A (Hexokinase A)	1	0.06	0.51	-0.25	-1.01
CG6733	1	0.13	-0.14	0.3	-0.25
CG13196	1	-0.49	0.32	0.74	1
CG15764	1	1.11	0.65	0.85	0.29
Elo68alpha (Elongase 68alpha)	1	-0.05	-0.16	-0.12	0.6
PpD5 (Protein phosphatase D5)	1	-0.36	-0.15	0.86	0.37
Su(dx) (Suppressor of deltex)	1	0.65	0.2	-0.18	0.89
CG34348	1	-0.81	-0.05	-1.61	-0.18
CG34348	2	0.03	-0.13	-0.03	0.29
nwk (nervous wreck)	1	-0.13	1.33	-0.43	-0.03
nwk (nervous wreck)	2	-0.61	0.35	-0.69	0.33
CG14374	1	-0.1	0.23	0.87	-0.26
Sf3b5 (Splicing factor 3b subunit 5)	1	2.65	0.97	-0.17	-5.63
CG15260	1	0.11	0.18	1.4	-0.62
CG10214	1	-0.57	0.38	-0.18	-0.18
CG17362	1	-0.13	0.28	2.41	0.91
hrm (hermes)	1	-0.61	-2.47	-0.2	0.33

Ordered by “replicate 1, z-score of ERK-YFP with insulin” (low to high): 3 of the entries above
target gene	dsRNA no.	replicate 1, z-score of dpERK with insulin	replicate 2, z-score of dpERK with insulin	replicate 1, z-score of dpERK under basal conditions	replicate 1, z-score of ERK-YFP with insulin
PpD5 (Protein phosphatase D5)	1	-0.36	-0.15	0.86	0.37
Elo68alpha (Elongase 68alpha)	1	-0.05	-0.16	-0.12	0.6
Su(dx) (Suppressor of deltex)	1	0.65	0.2	-0.18	0.89
